## Results of single-concentration screens

Amino acid sequences for entries named in this document (tags omitted).
UniProt P9WFT3, whole entry: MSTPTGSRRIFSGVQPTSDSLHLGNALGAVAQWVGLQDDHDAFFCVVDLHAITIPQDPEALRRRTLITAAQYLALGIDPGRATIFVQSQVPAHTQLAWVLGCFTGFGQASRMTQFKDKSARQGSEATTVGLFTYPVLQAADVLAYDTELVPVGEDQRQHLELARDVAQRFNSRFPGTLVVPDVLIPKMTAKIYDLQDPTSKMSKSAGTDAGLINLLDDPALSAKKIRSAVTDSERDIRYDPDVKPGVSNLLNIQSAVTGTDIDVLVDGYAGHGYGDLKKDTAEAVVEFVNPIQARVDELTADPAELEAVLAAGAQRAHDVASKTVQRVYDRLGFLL
UniProt P9WNZ1, whole entry: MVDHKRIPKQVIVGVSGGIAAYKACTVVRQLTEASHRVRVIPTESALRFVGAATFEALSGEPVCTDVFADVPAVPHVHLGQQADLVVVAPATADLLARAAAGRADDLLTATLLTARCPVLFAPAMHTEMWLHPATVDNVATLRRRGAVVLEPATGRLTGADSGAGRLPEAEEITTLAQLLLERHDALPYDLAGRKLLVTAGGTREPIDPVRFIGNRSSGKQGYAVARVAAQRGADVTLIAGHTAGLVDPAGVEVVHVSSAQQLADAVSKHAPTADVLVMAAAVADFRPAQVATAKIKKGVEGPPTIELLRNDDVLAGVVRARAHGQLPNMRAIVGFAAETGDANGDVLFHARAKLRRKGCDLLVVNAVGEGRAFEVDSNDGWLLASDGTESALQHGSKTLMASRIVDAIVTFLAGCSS
UniProt P9WPC5, whole entry: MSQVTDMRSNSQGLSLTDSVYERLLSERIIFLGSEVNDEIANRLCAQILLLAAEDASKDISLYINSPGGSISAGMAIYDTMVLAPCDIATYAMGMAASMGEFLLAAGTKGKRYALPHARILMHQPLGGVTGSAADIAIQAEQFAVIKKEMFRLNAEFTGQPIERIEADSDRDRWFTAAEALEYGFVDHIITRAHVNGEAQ
UniProt P9WPC3, whole entry partner: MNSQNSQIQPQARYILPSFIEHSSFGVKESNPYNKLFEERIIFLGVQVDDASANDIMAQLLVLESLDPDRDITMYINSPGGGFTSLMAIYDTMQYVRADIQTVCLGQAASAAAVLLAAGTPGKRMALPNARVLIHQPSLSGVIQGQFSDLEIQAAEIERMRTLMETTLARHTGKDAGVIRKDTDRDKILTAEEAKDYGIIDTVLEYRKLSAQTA

A: 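Enzyme assay of tryptophanyl-tRNA synthetase; the read-out is not stated. Target: Tryptophan-tRNA ligase, Mycobacterium tuberculosis (UniProt P9WFT3). Compounds at 10 µM. Higher most likely means stronger inhibition; the record gives no direction and few retests gave an IC50. Of about 65,000 compounds tested this way, about 64 (0.098%) reached 50% or more in at least one test.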
B: 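Coenzyme A biosynthesis protein CoaBC, Mycobacterium tuberculosis (UniProt P9WNZ1). Enzyme assay of CoaBC with a phosphate dye (Biomol Green) read at 650 nm. Compounds at 30 µM. Direction is inferred from only a few compounds that gave an IC50; most scored high, so higher reads as stronger inhibition. Most strong results did not repeat in a second test. Of about 67,000 compounds tested this way, about 40 (0.06%) reached 50% or more in at least one test.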
C: 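ClpP1P2, Mycobacterium tuberculosis (UniProt P9WPC5 and UniProt P9WPC3). Protease assay of ClpP1P2, read by the AMC dye that it sets free. Concentration: 50 µM. Higher reads as stronger inhibition, judged from the few compounds that gave an IC50. Most other retested compounds had strongly negative values. Size under these conditions: about 69,000 compounds, about 10 of them at 50% or above in at least one test.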

Results are given as percent effect.
The record does not define 0% and 100%; most values in the screen are far below 50% and negative numbers occur (in some assays of this library far below -100).
This is an unselected part of the compounds tested.
A dash means the value is not listed here; it may have been measured.

| SMILES | A | B | C |
|---|---|---|---|
| `CNc1cc(C)nc(C2COCCN2CCc2ccccc2)n1` (configuration not stated) | -1.244% | 0.5256% | -6.323% |
| `COC1CN(C(=O)CC(C)(C)C)CCC(=O)N(C)c2ccccc21` (configuration not stated) | - | -0.9685% | 6.523% |
| `CC(NCc1cccc2c1OCCO2)c1cc2c(cc1Br)OCCO2` (configuration not stated) | -3.818% | -2.899% | 5.555% |
| `N#Cc1cc(N2CCC(CS(N)(=O)=O)CC2)nc2ccccc12` | -0.3846% | -2.457% | -5.516% |
| `CC(=O)NCc1nnc2n1CCN(c1ncnc3c(C)csc13)CC2` | 0.1818% | 0.4831% | 12.84% |
| `COc1c(CNCc2ccc(C(=O)N(C)C)cc2)c(C)nn1C` | -1.462% | 6.789% | 5.842% |
| `CN1CCN(S(=O)(=O)c2cccc(F)c2)Cc2cccnc21` | - | -0.3713% | 15.18% |
| `NCC1Cc2cc(-c3cncc(C(=O)N4CCOCC4)n3)cc(Cl)c2O1` (configuration not stated) | -2.514% | 5.03% | -8.862% |
| `Cc1ccc(C)c(N2CCN(CC3(O)CCNC3)CC2)c1` (configuration not stated) | 3.931% | -23.55% | 2.719% |
| `O=C(c1ccc[nH]1)N1CCc2nnc(Cn3cccc3)n2CC1` | - | 5.697% | -1.323% |
| `Cc1cnc(NS(=O)(=O)c2cccc(C#N)c2)s1` | 5.752% | - | -2.347% |
| `COCCN1CCN(Cc2c(C)noc2C)Cc2ccc(C)nc21` | -2.891% | -1.667% | -3.654% |
| `CC[C@@H](c1ccccc1)n1c(C2CC2)n[nH]c1=O` | 0.9709% | 0.9639% | 4.717% |
| `O=C(c1ccccn1)N1C[C@@H]2OCC(=O)N(CC3CCCCC3)[C@@H]2C1` | -3.067% | 3.226% | -10.42% |
| `O=C(N[C@@H]1CCNC[C@H]1O)c1ccccc1OC(F)(F)C(F)F` | 0.09139% | -4.194% | -5.037% |
| `CN(C)S(=O)(=O)c1ccc(CNC(=O)C2CC2)cc1` | -1.652% | 5.556% | 12.14% |
| `Cc1cccc(-c2nc3cc(S(=O)(=O)N4CCCC4)ccc3n2C)n1` | -3.535% | 4.684% | 15.43% |
| `CN(CC1COc2ccccc2O1)C(=O)C1=NN(C)C(=O)CC1` (configuration not stated) | 4.238% | 0.3659% | -0.2299% |
| `Cc1cc(C)nc(NCCCC(=O)NCCn2ccc3ccccc32)n1` | 3.431% | 2.778% | 0.7045% |
| `CCn1nc(C)c(CCNC(=O)C2CCCN(CC(N)=O)C2)c1C` (configuration not stated) | 4.595% | 7.895% | -9.191% |
| `Cc1ncsc1C(=O)NC1CCN(CC(=O)N(C)c2ccccc2)CC1` | 3.411% | 3.84% | 2.833% |
| `CCc1ccc(CN(C)c2ccc(-c3nc(COC)no3)cn2)nc1` | 6.449% | 4.222% | -7.077% |
| `COc1ccc2c(c1)C(=O)NC1(CC2)CCN(Cc2ccccn2)C1` (configuration not stated) | -6.773% | -4.205% | -6.72% |
| `CC(O)CNC(=O)c1nc(Cc2c(Cl)cccc2Cl)no1` (configuration not stated) | -1.848% | -4.717% | -2.334% |
| `CCS(=O)(=O)N1CCC(Nc2c(F)cc(C#N)cc2F)CC1` | -0.7261% | 10.81% | 5.609% |
| `Cc1ccc(CN2C[C@@H](OCc3ccccn3)[C@H]3COC[C@H]32)o1` | - | 0% | -3.903% |
| `O=C(CN1CCSC(c2ccccc2)C1)NCc1ccccn1` (configuration not stated) | -0.000006% | 2.405% | -19.11% |
| `O=C(c1cc(-c2ccn(CC3CC3)n2)n2ccccc12)N1CCCO1` | -1.098% | 5.533% | -27.11% |
| `COc1cc(OC)cc(C(=O)NCCCNc2ncccn2)c1` | -2.058% | -4.059% | -3.816% |
| `COCCCNC(=O)Nc1ccc(-n2cncn2)c(C(F)(F)F)c1` | -1.664% | 7.417% | -7.609% |
| `CCn1cnnc1CNC(=O)N1CCN(c2cccc(OC)c2)CC1` | -0.2398% | 2.169% | 16.79% |
| `CCc1nnsc1-c1nc(C(C)C)nn1-c1ccc2c(c1)OCO2` | 2.312% | 0.9938% | 9.766% |
| `CC(C)n1nc(Cn2cccn2)c2c1CN(CC1CCOC1)C2` (configuration not stated) | -4.328% | -9.165% | 6.005% |
| `CCOCc1cccc(S(=O)(=O)N2CCSCC2)c1` | 2.814% | -2.019% | 0.04061% |
| `Cc1cc(NCc2ccc(O)cc2)n2nc(C)cc2n1` | 3.09% | -0.2554% | -5.468% |
| `O=C(NCc1cn2c(n1)SCC2)c1cn(CCN2CCCCC2)nn1` | 3.769% | 8.705% | -11.2% |
| `CC(C)[C@H]1CN(c2ccncc2)C[C@@H]1NS(=O)(=O)N(C)C` | 2.937% | -12.07% | -3.933% |
| `CCc1nc(Cn2cncc(Br)c2=O)no1` | -3.023% | 11.02% | 10.44% |
| `Cc1nccc(C2CN(Cc3ccc(-c4ccccc4C(=O)O)o3)C2)n1` | -2.902% | -4.439% | -16.1% |
| `COc1cc(CNCC(O)c2cccc(F)c2)cc2c1OCO2` (configuration not stated) | -7.969% | 4.082% | -11.38% |
| `CCC1CCCN(C(=O)NCc2cccnc2-n2cccn2)C1` (configuration not stated) | -7.688% | -0.5222% | -32.94% |
| `CN(C)C(=O)c1ccc(C2CCCN2C(=O)CCC2=NNC(=O)CC2)s1` (configuration not stated) | 0.1097% | 6.2% | -10.82% |
| `Cn1cc(C(=O)N2CCCC(Cc3cncc4ccccc34)C2)cn1` (configuration not stated) | -2.51% | -0.618% | -6.097% |

2 of the entries, repeated:

SMILES,A,B,C
CN(CC1COc2ccccc2O1)C(=O)C1=NN(C)C(=O)CC1 (configuration not stated),4.238%,0.3659%,-0.2299%
CCn1nc(C)c(CCNC(=O)C2CCCN(CC(N)=O)C2)c1C (configuration not stated),4.595%,7.895%,-9.191%

Measurements from “University of Dundee, Small-Polar-MMV Screening Library” (2021), ChEMBL document CHEMBL3988442.